Measured values taken from paper PMC4562336.
These are yes or no findings as the source states them, for the method shown. One block for each binder: values may come before it.

Assays:
[1] = molecular target: full-length human mitochondrial ATP-Mg/Pi carrier isoform 1 (HsAPC-1) (human) (UniProt Q6NUK1); experiment: SEC; Superdex 200 pg 16/60; 20 mM Tris pH 7.4, 50 mM NaCl, 0.03% (w/v) LMNG, 0.03 mg/mL tetra-oleoyl cardiolipin; mass of protein, detergent and lipid in the micelle determined colorimetrically; both purified
[2] = molecular target: HsAPC-1 regulatory domain and linker region (residues 14 to 174) (human) (UniProt Q6NUK1); experiment: crystal structure; calcium-bound HsAPC-1 RD, space groups P2 and P2(1)2(1)2(1); polyethylene glycol 8000 with 0.2 M ammonium sulfate or 0.2 M lithium sulfate; both purified
[3] = molecular target: HsAPC-1 regulatory domain and linker region (residues 14 to 174) (human) (UniProt Q6NUK1); experiment: SEC; Superdex 200 pg 16/60; second SEC of the pooled dimer peak (peak 2); purification buffer with 5 mM calcium or 5 mM EGTA, with 1 mM DTT; both purified
[4] = molecular target: HsAPC-1 regulatory domain and linker region (residues 14 to 174) (human) (UniProt Q6NUK1); experiment: SEC; Superdex 200 pg 16/60; SEC during purification and second SEC of pooled peaks 2 and 3; purification buffer with 5 mM calcium or 5 mM EGTA, without DTT; both purified

- binding [1]: no binding
B1: full-length human mitochondrial ATP-Mg/Pi carrier isoform 1 (HsAPC-1) (protein, UniProt Q6NUK1 1-477)
chain: MLRWLRDFVLPTAACQDAEQPTRYETLFQALDRNGDGVVDIGELQEGLRNLGIPLGQDAEEKIFTTGDVNKDGKLDFEEFMKYLKDHEKKMKLAFKSLDKNNDGKIEASEIVQSLQTLGLTISEQQAELILQSIDVDGTMTVDWNEWRDYFLFNPVTDIEEIIRFWKHSTGIDIGDSLTIPDEFTEDEKKSGQWWRQLLAGGIAGAVSRTSTAPLDRLKIMMQVHGSKSDKMNIFGGFRQMVKEGGIRSLWRGNGTNVIKIAPETAVKFWAYEQYKKLLTEEGQKIGTFERFISGSMAGATAQTFIYPMEVMKTRLAVGKTGQYSGIYDCAKKILKHEGLGAFYKGYVPNLLGIIPYAGIDLAVYELLKSYWLDNFAKDSVNPGVMVLLGCGALSSTCGQLASYPLALVRTRMQAQAMLEGSPQLNMVGLFRRIISKEGIPGLYRGITPNFMKVLPAVGISYVVYENMKQTLGVTQK

- binding [2]: no binding
- binding [3]: no binding (condition: with 1 mM DTT)
- binding [4]: no binding
B2: HsAPC-1 regulatory domain and linker region (residues 14 to 174) (domain or fragment, UniProt Q6NUK1 14-174)
chain: ACQDAEQPTRYETLFQALDRNGDGVVDIGELQEGLRNLGIPLGQDAEEKIFTTGDVNKDGKLDFEEFMKYLKDHEKKMKLAFKSLDKNNDGKIEASEIVQSLQTLGLTISEQQAELILQSIDVDGTMTVDWNEWRDYFLFNPVTDIEEIIRFWKHSTGIDI
